Results as given in article doi:10.1101/373761.
Like-named read-outs stand apart in the source and are kept apart here. Results are given in words; binding and its absence hold for the method and conditions named. Binding seen in cells or lysates may run through a third protein. Some binding calls cover weakened binding; strength is not graded here.

Legend:
[1] = biological target: p53 (human (endogenous in HepG2 and QGY-7703)) (UniProt P04637); assay: co-IP
[2] = biological target: p53 (human (endogenous in HepG2 and QGY-7703)) (UniProt P04637); assay: co-IP; remark: listed apart in the source

binding [1]: binds
binding [2]: binds
B1: glycogen synthase 2 (GYS2) (enzyme, UniProt P54840 1-703)
chain: MLRGRSLSVTSLGGLPQWEVEELPVEELLLFEVAWEVTNKVGGIYTVIQTKAKTTADEWGENYFLIGPYFEHNMKTQVEQCEPVNDAVRRAVDAMNKHGCQVHFGRWLIEGSPYVVLFDIGYSAWNLDRWKGDLWEACSVGIPYHDREANDMLIFGSLTAWFLKEVTDHADGKYVVAQFHEWQAGIGLILSRARKLPIATIFTTHATLLGRYLCAANIDFYNHLDKFNIDKEAGERQIYHRYCMERASVHCAHVFTTVSEITAIEAEHMLKRKPDVVTPNGLNVKKFSAVHEFQNLHAMYKARIQDFVRGHFYGHLDFDLEKTLFLFIAGRYEFSNKGADIFLESLSRLNFLLRMHKSDITVMVFFIMPAKTNNFNVETLKGQAVRKQLWDVAHSVKEKFGKKLYDALLRGEIPDLNDILDRDDLTIMKRAIFSTQRQSLPPVTTHNMIDDSTDPILSTIRRIGLFNNRTDRVKVILHPEFLSSTSPLLPMDYEEFVRGCHLGVFPSYYEPWGYTPAECTVMGIPSVTTNLSGFGCFMQEHVADPTAYGIYIVDRRFRSPDDSCNQLTKFLYGFCKQSRRQRIIQRNRTERLSDLLDWRYLGRYYQHARHLTLSRAFPDKFHVELTSPPTTEGFKYPRPSSVPPSPSGSQASSPQSSDVEDEVEDERYDEEEEAERDRLNIKSPFSLSHVPHGKKKLHGEYKN
